From patent US6022696A, “Methods of identifying agonists or antagonists of angiotensin IV” (Washington State University Research Foundation, priority 1998, dated 2000)
Not every detail of the peptide structures is certain; ends, links or a residue may be inferred. Residues, ends and D or L forms follow the SMILES beside them.

Target: T1, AT4 receptor (Bos taurus, UniProt F1N1Q8)
T1 sequence (F1N1Q8 1-1022): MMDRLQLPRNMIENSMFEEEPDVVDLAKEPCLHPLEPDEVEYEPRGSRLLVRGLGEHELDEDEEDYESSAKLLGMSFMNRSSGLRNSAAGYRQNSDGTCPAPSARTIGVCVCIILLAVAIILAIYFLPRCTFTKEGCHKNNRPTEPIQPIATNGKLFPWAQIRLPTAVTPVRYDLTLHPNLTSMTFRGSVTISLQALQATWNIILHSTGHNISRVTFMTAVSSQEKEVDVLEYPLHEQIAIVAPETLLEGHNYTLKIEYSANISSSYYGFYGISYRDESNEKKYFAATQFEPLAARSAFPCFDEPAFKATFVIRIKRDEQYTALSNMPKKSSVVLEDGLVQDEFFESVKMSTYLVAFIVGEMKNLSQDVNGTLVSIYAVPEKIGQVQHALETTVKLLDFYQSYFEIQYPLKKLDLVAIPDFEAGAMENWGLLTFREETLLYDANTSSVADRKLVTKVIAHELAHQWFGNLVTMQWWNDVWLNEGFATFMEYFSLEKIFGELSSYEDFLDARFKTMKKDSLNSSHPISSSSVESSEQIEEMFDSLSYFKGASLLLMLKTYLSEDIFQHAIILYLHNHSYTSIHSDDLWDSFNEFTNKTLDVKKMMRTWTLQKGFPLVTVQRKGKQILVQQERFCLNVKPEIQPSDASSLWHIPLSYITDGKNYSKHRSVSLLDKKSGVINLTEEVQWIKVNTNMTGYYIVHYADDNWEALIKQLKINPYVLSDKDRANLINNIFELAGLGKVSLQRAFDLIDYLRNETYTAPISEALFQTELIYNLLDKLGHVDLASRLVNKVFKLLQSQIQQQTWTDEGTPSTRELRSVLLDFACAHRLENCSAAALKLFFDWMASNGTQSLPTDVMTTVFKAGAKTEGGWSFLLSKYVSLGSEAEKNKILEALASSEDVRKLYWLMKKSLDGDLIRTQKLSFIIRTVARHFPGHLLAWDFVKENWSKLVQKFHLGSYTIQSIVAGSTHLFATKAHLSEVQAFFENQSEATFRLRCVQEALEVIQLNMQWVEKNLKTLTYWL
Test: 125I-AIV binding and competition, bovine adrenal cortical membranes

How did the “decrease in AT4 receptor binding affinity relative to AIV (or stated parent peptide)” value turn out when `CC[C@H](C)[C@H](NC(=O)[C@@H](N)Cc1ccc(O)cc1)C(=O)N[C@@H](Cc1c[nH]cn1)C(=O)N1CCC[C@H]1C(=O)N[C@@H](Cc1ccccc1)C(=O)O` [AII(4-8)] (H-YIHPF-OH) was run?
The value was 1000 fold.
